# Measured values reported in publication PMC12431657, “Discovery and mechanistic insights of dibenzoylmethane as a broad spectrum inhibitor of coronavirus” (PLOS Pathogens, 2025).
# Where a name gives a salt, the structure may show the parent alone. Read-outs that look alike come from different tables or passages of the source. About 95 (3%) of roughly 3,300 compounds showed an effect of 50% or more. The list shows a part of the results.
# System: HCoV-229E
# Set-up: species or system Huh-7; HTS, protection from HCoV-229E induced cell death, luminescent cell viability (CellCounting-Lite 2.0), inhibition rate
# Conditions: 24 h post infection, 1 h compound pre-incubation, 10 µM, inhibitor
Structure (SMILES),229E Inhibition rate,"229E Inhibition rate (229E Inhibition rate, 24 h)"
NC(=O)CC(N)C(=O)O (racemic) [DL-Asparagine],3.9%,–
CO[C@H]([C@H](C)[C@H]1O[C@@]2(CC[C@@](C)([C@H]3CC[C@@](C)([C@@H]4O[C@@H]([C@H]5O[C@@](O)(CO)[C@H](C)C[C@@H]5C)C[C@@H]4C)O3)O2)C[C@H](O)[C@H]1C)[C@H](C)C(=O)O [Monensin B],55.3%,–
O=C(O)C[C@H](O)C(=O)O [(S)-Malic acid],12%,–
C=C(NC(=O)C(=C)NC(=O)c1csc(C2=N[C@@H]3c4csc(n4)[C@H]4NC(=O)c5csc(n5)[C@H]([C@](C)(O)[C@@H](C)O)NC(=O)[C@H]5CSC(=N5)/C(=C/C)NC(=O)[C@H]([C@@H](C)O)NC(=O)c5csc(n5)[C@]3(CC2)NC(=O)[C@H](C)NC(=O)C(=C)NC(=O)[C@H](C)NC(=O)[C@H]([C@@H](C)CC)N[C@@H]2C=Cc3c([C@H](C)O)cc(nc3[C@H]2O)C(=O)O[C@@H]4C)n1)C(N)=O [Thiostrepton],5.1%,–
"C[C@@H](O)[C@@H](C)O [2,3-Butanediol]",–,20.3%
COc1cc2c3c(cc4ccccc4c3c1OC)N(C)CC2 [Dehydronuciferine],38.8%,–
CC(C)C[C@H](N)C(=O)O [L-Leucine],13.3%,–
NC(=O)c1cccnc1 [Nicotinamide],16.9%,–
NCCC(=O)N[C@@H](Cc1cnc[nH]1)C(=O)O [L-Carnosine],14.6%,–
CC(=O)O[C@]12CCC(C)=CC[C@]13CC[C@H]2[C@@](C)(/C=C/C=C(\C)C(=O)O)OC3=O [Pseudolaric Acid A],20.1%,–
CC1CCCCC1=O (centres unmarked) [2-Methylcyclohexanone],22.9%,–
C[C@@H]1O[C@@H](OC[C@H]2O[C@@H](Oc3c(-c4ccc(O)cc4)oc4cc(O)cc(O)c4c3=O)[C@H](O[C@@H]3O[C@@H](C)[C@H](O)[C@@H](O)[C@H]3O)[C@@H](O)[C@@H]2O)[C@H](O)[C@H](O)[C@H]1O [Clitorin],8.3%,–
COc1ccc(-c2oc3c(CCC(C)(C)O)c(O)cc(O)c3c(=O)c2O)cc1 [Wushanicaritin],51.4%,–
CC[C@H](CC[C@@H](C)[C@H]1CC[C@H]2[C@@H]3CC[C@H]4C[C@@H](O)CC[C@]4(C)[C@H]3CC[C@]12C)C(C)C [Stigmastanol],12.4%,–
C/C=C/C#CC#C[C@@H](O)[C@@H](/C=C/CCCO)O[C@@H]1O[C@H](CO)[C@@H](O)[C@H](O)[C@H]1O [Lobetyolin],45%,–
O=C(O)[C@@H]1C[C@H](O)CN1 [cis-4-Hydroxy-L-proline],15.4%,–
OC[C@H]1O[C@H](OC[C@H]2O[C@H](OC[C@H]3O[C@H](O[C@]4(CO)O[C@H](CO)[C@@H](O)[C@@H]4O)[C@H](O)[C@@H](O)[C@@H]3O)[C@H](O)[C@@H](O)[C@H]2O)[C@H](O)[C@@H](O)[C@H]1O [Stachyose (tetrahydrate)],43.8%,–
COC(=O)CCCC(=O)O [5-Methoxy-5-oxopentanoic acid],19.1%,–
CCCCCCCCCCCCCCCCC(C(=O)O)C(O)(CC(=O)O)C(=O)O (centres unmarked) [Agaric acid],18.4%,–
COc1cc(C[C@@H](CO)[C@H](CO)Cc2ccc(O)c(OC)c2)ccc1O [(+)-Secoisolariciresinol],–,11.2%
CC(=O)O[C@H]1CC[C@]2(C)C3=C(CC[C@H]2C1(C)C)[C@]1(C)C[C@@H](O)[C@H]([C@@H](CCC=C(C)C)C(=O)O)[C@@]1(C)CC3 [3-O-Acetyl-16α-hydroxytrametenolic acid],8.3%,–
C[C@@H]1O[C@@H](OC[C@H]2O[C@@H](Oc3c(-c4ccc(O)c(O)c4)oc4cc(O)cc(O)c4c3=O)[C@H](O)[C@@H](O)[C@@H]2O)[C@H](O)[C@H](O)[C@H]1O [Rutin (hydrate)],–,19%
CC(C)(C(=O)O)C(=O)O [Dimethylmalonic acid],0%,–
CC[C@@H](C(=O)[C@@H](C)[C@@H](O)[C@H](C)CCc1ccc(C)c(O)c1C(=O)O)[C@H]1O[C@](CC)([C@H]2CC[C@](O)(CC)[C@H](C)O2)C[C@@H]1C [Lasalocid (sodium)],–,24.8%
CC1(C)CC[C@]2(C(=O)O[C@@H]3O[C@H](CO)[C@@H](O)[C@H](O)[C@H]3O)CC[C@]3(C)C(=CC[C@@H]4[C@@]5(C)CC[C@H](O[C@@H]6O[C@H](C(=O)O)[C@@H](O)[C@H](O)[C@H]6O[C@H]6OC[C@@H](O)[C@H](O)[C@H]6O)C(C)(C)[C@@H]5CC[C@]43C)[C@@H]2C1 [Pseudoginsenoside RT1],15.5%,–
O=c1c(O)c(-c2ccc(O)c(O)c2)oc2c(O[C@@H]3O[C@H](CO)[C@@H](O)[C@H](O)[C@H]3O)c(O)cc(O)c12 [Gossypin],15.7%,–
C[N+]1(C)CCC[C@H]1C(=O)[O-] [Stachydrine hydrochloride],–,11.8%

Structure (SMILES),229E Inhibition rate,"229E Inhibition rate (229E Inhibition rate, 24 h)"
CC(=O)O[C@H]1C[C@@]2(C)[C@@H](C[C@@H](O)[C@H]3[C@@]4(C)CC[C@@H](O)[C@@H](C)[C@@H]4CC[C@@]32C)/C1=C(\CCC=C(C)C)C(=O)O [Fusidic acid],–,31.2%
O=C(c1ccc(OCCN2CCCCC2)cc1)c1c(-c2ccc(O)cc2)sc2cc(O)ccc12 [Raloxifene (hydrochloride)],0%,–
CC(=O)CCC=C(C)C [Sulcatone],21.2%,–
Oc1cc(O)cc(-c2cc3ccc(O)cc3o2)c1 [Moracin M],14.7%,–
C[C@@]12CC[C@@H]3[C@@](CC[C@H]4[C@@]3(C)CCC[C@@]4(C)C(=O)O)(CC1=O)C2 [Isosteviol],19%,–
CC[C@@]1([C@H]2O[C@H]([C@H]3O[C@@](O)(CO)[C@H](C)C[C@@H]3C)C[C@H]2C)CC[C@H]([C@@]2(C)CC[C@]3(C[C@H](O)[C@@H](C)[C@@H]([C@H](C)[C@H](OC)[C@@H](C)C(=O)O)O3)O2)O1 [Monensin sodium salt],24.5%,–
COc1cc(C[C@H]2C(=O)OC[C@@H]2Cc2ccc(OC)c(OC)c2)ccc1O [Arctigenin],14.2%,–
C[C@@H]1CC[C@]2(C(=O)O[C@@H]3O[C@H](CO)[C@@H](O)[C@H](O)[C@H]3O)CC[C@]3(C)C(=CC[C@@H]4[C@@]5(C)CC[C@H](O[C@@H]6OC[C@H](O)[C@H](O)[C@H]6O)C(C)(C)[C@@H]5CC[C@]43C)[C@@H]2[C@]1(C)O [Ziyuglycoside I],5%,–
CC(=O)O[C@H]1CC[C@]2(C)[C@H]3CC=C4[C@@H]5CC(C)(C)CC[C@]5(C(=O)O)CC[C@@]4(C)[C@]3(C)CC[C@H]2C1(C)C [3-O-Acetyloleanolic acid],2.7%,–
COc1ccc(-c2oc3cc(OC)c(OC)c(O)c3c(=O)c2OC)cc1O [Casticin],21.3%,–
COc1cc([C@H]2Oc3cc([C@H]4Oc5cc(O)cc(O)c5C(=O)[C@@H]4O)ccc3O[C@@H]2CO)ccc1O [Silibinin],–,12.8%
COC1=CC(=O)O[C@@H](/C=C/c2ccc3c(c2)OCO3)C1 [Methylsticin],37.7%,–
C[C@@H]1O[C@@H](O[C@@H]2[C@@H](O)[C@H](OCCc3ccc(O)c(O)c3)O[C@H](CO[C@@H]3O[C@H](CO)[C@@H](O)[C@H](O)[C@H]3O)[C@H]2OC(=O)/C=C/c2ccc(O)c(O)c2)[C@H](O)[C@H](O)[C@H]1O [Echinacoside],3.3%,–
COc1ccc(C(C)=O)c(O)c1 [Paeonol],22.7%,–
C[C@H]1CC[C@@]2(OC1)O[C@H]1C[C@H]3[C@@H]4CC[C@@H]5C[C@@H](O[C@@H]6O[C@H](CO)[C@H](O)[C@H](O)[C@H]6O[C@@H]6O[C@H](CO)[C@@H](O)[C@H](O)[C@H]6O)CC[C@]5(C)[C@H]4CC[C@]3(C)[C@H]1[C@@H]2C [Timosaponin AIII],1.2%,–
O=C(O)c1ccc(O)cc1 [4-Hydroxybenzoic acid],35.4%,–
COc1c(O)cc2c(c1O)[C@@H]1O[C@H](CO)[C@@H](O)[C@H](O)[C@H]1OC2=O [Bergenin],7.1%,–
C/C=C(\C)C(=O)O[C@@H]1[C@@H](OC(C)=O)[C@]2(C)[C@H](C(C)=O)CC[C@@]23O[C@]32CC[C@H]3C[C@@H](O[C@H]4C[C@@H](OC)[C@H](O[C@@H]5O[C@H](C)[C@@H](O)[C@@H](OC)[C@H]5O)[C@@H](C)O4)CC[C@]3(C)[C@@H]12 [Tenacissoside G],13.2%,–
C=C1CCC[C@]2(C)CC[C@@H](C(C)(C)O)C[C@@H]12 [Beta-Eudesmol],19.6%,–
COc1ccc2c(c1OC)CN1CCc3cc4c(cc3C1C2)OCO4 (centres unmarked) [Tetrahydroberberine],9%,–
CC(=O)OCc1ccccc1 [Benzyl acetate],50.3%,–
COc1ccc2c(c1OC)CC1c3c(cc4c(c3-2)OCO4)CCN1C (centres unmarked) [Crebanine],62.7%,–
OC[C@@H](O)[C@H](O)[C@H](O)[C@@H](O)CO [Dulcite],15.3%,–
CC1=CC(=O)CC(C)(C)[C@@]1(O)/C=C/C(C)=C\C(=O)O [Abscisic acid],–,21.6%
Oc1cc(O)c2c(c1)O[C@H](c1ccc(O)c(O)c1)[C@@H](O)C2 [(+)-Catechin hydrate],–,6.4%
C1CNCCNCCNCCN1 [Cyclen],11.2%,–

# Four entries picked at random from the list so far, as already listed:
Structure (SMILES),229E Inhibition rate,"229E Inhibition rate (229E Inhibition rate, 24 h)"
C=C1CCC[C@]2(C)CC[C@@H](C(C)(C)O)C[C@@H]12 [Beta-Eudesmol],19.6%,–
COc1ccc(-c2oc3c(CCC(C)(C)O)c(O)cc(O)c3c(=O)c2O)cc1 [Wushanicaritin],51.4%,–
O=c1c(O)c(-c2ccc(O)c(O)c2)oc2c(O[C@@H]3O[C@H](CO)[C@@H](O)[C@H](O)[C@H]3O)c(O)cc(O)c12 [Gossypin],15.7%,–
C1CNCCNCCNCCN1 [Cyclen],11.2%,–
